{"source": "PubChem BioAssay AID652272 | Drosophila RNAi Screening Center, 2013", "purpose": "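Genome-wide knock-down search for components of Hedgehog signalling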 (primary screen)", "cell system": "Drosophila clone 8 (Cl8) cells", "knock-down reagent": "long dsRNA against Drosophila genes", "read-out": "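Plate reader light from a firefly reporter under a ptc promoter fragment that responds to Hedgehog, with Renilla light as transfection reference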", "scale": "firefly Hh reporter signal: higher = more ptc reporter light; Renilla reference signal: higher = more Renilla control light", "active means": "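Hit when the z-score averaged over two replicates is under -2 or over +3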", "meaning of the calls": "active = hit: reporter lowered or raised; inactive = not a hit", "note": "In all, the deposit lists about 21,000 reagents; this is a random part of those that have a named target and a result. Of all reagents, 503 (2.4%) are marked active. 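Raw plate light values, not normalised; calls rest on replicate z-scores that were not deposited; hits include reporter decreases as well as increases.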 A number with no mark means an inactive call. Reagents against one gene are numbered here. Not given: the amount of reagent, the time to read-out."}
{"predicted target": "Klp67A", "reagent no.": 1, "firefly Hh reporter signal, replicate 1": 60458, "firefly Hh reporter signal, replicate 2": 48982, "firefly Hh reporter signal, replicate 3": 62752, "Renilla reference signal, replicate 1": 4180, "Renilla reference signal, replicate 2": 5218}
{"predicted target": "Psf2", "reagent no.": 1, "firefly Hh reporter signal, replicate 1": 89660, "firefly Hh reporter signal, replicate 2": 58235, "Renilla reference signal, replicate 1": 653, "Renilla reference signal, replicate 2": 5251}
{"predicted target": "Rab3", "reagent no.": 1, "firefly Hh reporter signal, replicate 1": 1.47e5, "firefly Hh reporter signal, replicate 2": 1.01e5, "Renilla reference signal, replicate 1": 6165, "Renilla reference signal, replicate 2": 4473}
{"predicted target": "Cht12", "reagent no.": 1, "firefly Hh reporter signal, replicate 1": 1.10e5, "firefly Hh reporter signal, replicate 2": 2.36e5, "Renilla reference signal, replicate 1": 7538, "Renilla reference signal, replicate 2": 9749}
{"predicted target": "CG17207", "reagent no.": 1, "firefly Hh reporter signal, replicate 1": 71801, "firefly Hh reporter signal, replicate 2": 1.31e5, "Renilla reference signal, replicate 1": 2325, "Renilla reference signal, replicate 2": 6867}
{"predicted target": "CG15385", "reagent no.": 1, "firefly Hh reporter signal, replicate 1": 1.04e5, "firefly Hh reporter signal, replicate 2": 82243, "Renilla reference signal, replicate 1": 2912, "Renilla reference signal, replicate 2": 1952}
{"predicted target": "acj6", "reagent no.": 1, "firefly Hh reporter signal, replicate 1": 1.25e5, "firefly Hh reporter signal, replicate 2": 84582, "Renilla reference signal, replicate 1": 3111, "Renilla reference signal, replicate 2": 2512}
{"predicted target": "CG43063", "reagent no.": 1, "firefly Hh reporter signal, replicate 1": 44748, "firefly Hh reporter signal, replicate 2": 1.32e5, "Renilla reference signal, replicate 1": 9383, "Renilla reference signal, replicate 2": 2699}
{"predicted target": "Nph", "reagent no.": 1, "firefly Hh reporter signal, replicate 1": 1.40e5, "firefly Hh reporter signal, replicate 2": 1.47e5, "Renilla reference signal, replicate 1": 5001, "Renilla reference signal, replicate 2": 3975}
{"predicted target": "CG32454", "reagent no.": 1, "firefly Hh reporter signal, replicate 1": 1.04e5, "firefly Hh reporter signal, replicate 2": 67213, "Renilla reference signal, replicate 1": 4115, "Renilla reference signal, replicate 2": 2986}
{"predicted target": "mRpS26", "reagent no.": 1, "firefly Hh reporter signal, replicate 1": 1.02e5, "Renilla reference signal, replicate 1": 1426, "Renilla reference signal, replicate 2": 13141}
{"predicted target": "CG11858", "reagent no.": 1, "firefly Hh reporter signal, replicate 1": 6.69e5, "firefly Hh reporter signal, replicate 2": 1.33e5, "Renilla reference signal, replicate 1": 35869, "Renilla reference signal, replicate 2": 4012}
{"predicted target": "slp1", "reagent no.": 1, "firefly Hh reporter signal, replicate 1": 85464, "firefly Hh reporter signal, replicate 2": 88163, "Renilla reference signal, replicate 1": 3616, "Renilla reference signal, replicate 2": 4000}
{"predicted target": "seq", "reagent no.": 1, "firefly Hh reporter signal, replicate 1": 64409, "firefly Hh reporter signal, replicate 2": 32816, "Renilla reference signal, replicate 1": 1693, "Renilla reference signal, replicate 2": 2640}
{"predicted target": "CG5762", "reagent no.": 1, "firefly Hh reporter signal, replicate 1": 95520, "firefly Hh reporter signal, replicate 2": 1.10e5, "Renilla reference signal, replicate 1": 3479, "Renilla reference signal, replicate 2": 4064}
{"predicted target": "St3", "reagent no.": 1, "firefly Hh reporter signal, replicate 1": 95352, "firefly Hh reporter signal, replicate 2": 54364, "Renilla reference signal, replicate 1": 2198, "Renilla reference signal, replicate 2": 5040}
{"predicted target": "St3", "reagent no.": 2, "firefly Hh reporter signal, replicate 1": 1.28e5, "firefly Hh reporter signal, replicate 2": 57876, "Renilla reference signal, replicate 1": 4683, "Renilla reference signal, replicate 2": 2416}
{"predicted target": "HLH3B", "reagent no.": 1, "firefly Hh reporter signal, replicate 1": 51282, "firefly Hh reporter signal, replicate 2": 1.69e5, "Renilla reference signal, replicate 1": 1081, "Renilla reference signal, replicate 2": 6967}
{"predicted target": "CG17977", "reagent no.": 1, "firefly Hh reporter signal, replicate 1": 77675, "firefly Hh reporter signal, replicate 2": 52257, "Renilla reference signal, replicate 1": 1952, "Renilla reference signal, replicate 2": 4748}
{"predicted target": "CG13023", "reagent no.": 1, "firefly Hh reporter signal, replicate 1": 2.16e5, "Renilla reference signal, replicate 1": 4592}
{"predicted target": "CG13023", "reagent no.": 2, "firefly Hh reporter signal, replicate 1": 1.60e5, "Renilla reference signal, replicate 1": 8753, "Renilla reference signal, replicate 2": 4453}
{"predicted target": "timeout", "reagent no.": 1, "firefly Hh reporter signal, replicate 1": 46333, "firefly Hh reporter signal, replicate 2": 1.58e5, "Renilla reference signal, replicate 1": 10406, "Renilla reference signal, replicate 2": 3643}
{"predicted target": "timeout", "reagent no.": 2, "firefly Hh reporter signal, replicate 1": 70929, "firefly Hh reporter signal, replicate 2": 65011, "Renilla reference signal, replicate 1": 2199, "Renilla reference signal, replicate 2": 1948}
{"predicted target": "timeout", "reagent no.": 3, "firefly Hh reporter signal, replicate 1": 1.14e5, "firefly Hh reporter signal, replicate 2": 1.07e5, "Renilla reference signal, replicate 1": 2983, "Renilla reference signal, replicate 2": 2624}
{"predicted target": "timeout", "reagent no.": 4, "firefly Hh reporter signal, replicate 1": 79296, "firefly Hh reporter signal, replicate 2": 76976, "Renilla reference signal, replicate 1": 2807, "Renilla reference signal, replicate 2": 2230}
{"predicted target": "timeout", "reagent no.": 5, "firefly Hh reporter signal, replicate 1": 1.58e5, "firefly Hh reporter signal, replicate 2": 1.10e5, "Renilla reference signal, replicate 1": 5206, "Renilla reference signal, replicate 2": 2937}
{"predicted target": "Polr2L", "reagent no.": 1, "firefly Hh reporter signal, replicate 1": 5.61e5, "firefly Hh reporter signal, replicate 2": 94962, "Renilla reference signal, replicate 1": 24916, "Renilla reference signal, replicate 2": 2448}

Just “firefly Hh reporter signal, replicate 2” (4 entries from above):
CG11858 = 1.33e5
slp1 = 88163
seq = 32816
CG5762 = 1.10e5
